PubChem BioAssay AID1508597 – Cure First | 2020
Test: 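Survival screen with siRNA in ovarian cancer cells derived from patients, with or without rucaparib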 (primary screen). System: human ovarian carcinoma lines grown from tumours: OCI-P5x (papillary serous) and OCI-C5x (clear cell). Reagents: siRNA pool against human genes, 1.25 pmol siRNA per well. Duration: 72 h or 96 h, depending on the cell culture. Conditions: rucaparib 20 µM (about IC30) or vehicle, present until read-out. Measured: 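Luminescent ATP-based viability assay read 72 or 96 h after transfection, depending on culture, given as normalised percent viability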. Direction: viability, normalised: higher = more viable cells remaining. Hit rule: 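a well counts as a hit if its normalised viability is under 80 percent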. Calls: active = viability under 80%; inactive = viability 80% or more.
The whole screen tested about 2,100 reagents; this is an unselected part. 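Calls flag viability under 80% in either arm, not effects specific to rucaparib; the reference for percent is not stated.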 Reagent sequences are not shown. Not given: the 100% reference.

Gene | rucaparib or vehicle | cell line | technical replicate | viability, normalised (%) | activity call
MAP3K5 | Rucaparib | OCI-C5x (clear cell) | 1 | 64.3 | active
MAP3K5 | Rucaparib | OCI-C5x (clear cell) | 2 | 69.3 | active
MAP3K5 | Rucaparib | OCI-C5x (clear cell) | 3 | 63 | active
MAP3K5 | Rucaparib | OCI-P5x (serous) | 1 | 116 | inactive
MAP3K5 | Rucaparib | OCI-P5x (serous) | 2 | 129 | inactive
MAP3K5 | Rucaparib | OCI-P5x (serous) | 3 | 102 | inactive
MAP3K5 | Vehicle | OCI-C5x (clear cell) | 1 | 96.2 | inactive
MAP3K5 | Vehicle | OCI-C5x (clear cell) | 2 | 62.9 | active
MAP3K5 | Vehicle | OCI-C5x (clear cell) | 3 | 60.5 | active
MAP3K5 | Vehicle | OCI-P5x (serous) | 1 | 77.8 | active
MAP3K5 | Vehicle | OCI-P5x (serous) | 2 | 96 | inactive
MAP3K5 | Vehicle | OCI-P5x (serous) | 3 | 69 | active
HDAC11 | Rucaparib | OCI-C5x (clear cell) | 1 | 32.4 | active
HDAC11 | Rucaparib | OCI-C5x (clear cell) | 2 | 43.4 | active
HDAC11 | Rucaparib | OCI-C5x (clear cell) | 3 | 38.4 | active
HDAC11 | Rucaparib | OCI-P5x (serous) | 1 | 69.2 | active
HDAC11 | Rucaparib | OCI-P5x (serous) | 2 | 76 | active
HDAC11 | Rucaparib | OCI-P5x (serous) | 3 | 68.5 | active
HDAC11 | Vehicle | OCI-C5x (clear cell) | 1 | 35.9 | active
HDAC11 | Vehicle | OCI-C5x (clear cell) | 2 | 41.6 | active
HDAC11 | Vehicle | OCI-C5x (clear cell) | 3 | 58.2 | active
HDAC11 | Vehicle | OCI-P5x (serous) | 1 | 74.4 | active
HDAC11 | Vehicle | OCI-P5x (serous) | 2 | 72.8 | active
HDAC11 | Vehicle | OCI-P5x (serous) | 3 | 84.3 | inactive
